Some of these results come from one statement about several compounds together.
Test system: wheat speckled leaf blotch fungus (Septoria tritici)
Assay: Test Example 5: wheat speckled leaf blotch, foliar spray before inoculation, lesion area
Assay type: in vivo
Details: 200 ppm foliar spray, wheat (Apogee), inoculated 4 days after spraying, formulation per Formulation Example 6

| SMILES | area of the lesion relative to untreated wheat [%] |
| --- | --- |
| COC(=O)Nc1cccc(C)c1COc1ccc(-c2ccc(C)cn2)cc1C [Compound 1] | ≤ 30 |
| COC(=O)Nc1cccc(C)c1COc1ccc(-c2cccc(C)n2)cc1C [Compound 5] | ≤ 30 |
